Common to all, as to assay: EMSA
In series [1] the test system is Alx1-FL (Lytechinus variegatus). As to conditions: 75 mM NaCl, 15 mM Tris pH 7.6, 7.5% glycerol, 2 mM MgCl2, 1.5 mM EDTA, 0.1% NP-40, 40 mM DTT, 50 ug BSA, ice then RT, recombinant protein, protein details: Flag (N-terminal, intein removed).
Series [2] has as its system Alx1-HD (Lytechinus variegatus). Particulars: 75 mM NaCl, 15 mM Tris pH 7.6, 7.5% glycerol, 2 mM MgCl2, 1.5 mM EDTA, 0.1% NP-40, 40 mM DTT, 50 ug BSA, 1 ug poly(dI-dC) per 20 ul, ice then RT, recombinant protein, protein details: His.
In series [3] the test system is Alx1-ΔD2 (Lytechinus variegatus). As to conditions: 75 mM NaCl, 15 mM Tris pH 7.6, 7.5% glycerol, 2 mM MgCl2, 1.5 mM EDTA, 0.1% NP-40, 40 mM DTT, 50 ug BSA, ice then RT, recombinant protein, protein details: His.
Series [4] concerns Alx4-FL (Lytechinus variegatus). Particulars: 75 mM NaCl, 15 mM Tris pH 7.6, 7.5% glycerol, 2 mM MgCl2, 1.5 mM EDTA, 0.1% NP-40, 40 mM DTT, 50 ug BSA, 1 ug poly(dI-dC) per 20 ul, ice then RT, recombinant protein, protein details: Flag (N-terminal, intein removed).
The mark [5] stands for this setting: dimer, 1 ug poly(dI-dC) per 20 ul, label: 5' biotin.
Where [6] appears, read: primarily monomer, 1 ug poly(dI-dC) per 20 ul, label: 5' biotin.
Where [7] appears, read: predominantly dimer, 1 ug poly(dI-dC) per 20 ul, label: 5' biotin.
Setting [8] is: monomer and prominent dimer, 1 ug poly(dI-dC) per …, label: 5' biotin.
Where [9] appears, read: monomer, some dimer, 1 ug poly(dI-dC) per 20 ul, label: 5' biotin.

Construct, isoform or probe ends are uncertain for at least one entry. For some of these results: A weaker result is weaker than the reference pair of the same experiment. For some of these results: At least one verdict was read from the data and is not stated in words by the source.

For the sequence “ACCAACCACAACGTCGGGGCGTTAATAGATTTAAACTTTTTCGTCCGCCTG (double strand) [shorter palindromic (55bp)]”, in series [1] (setting [5]), the binding result is “binds”.

With “ATATCCGCGCGCATAATGTGACGACGTTAC (double strand) [Site C]”, the binding result in series [2] (very weak, if at all, label: 5' biotin) was “binds more weakly”; in series [3] (setting [6]) it was “binds”; in series [1] (setting [6]), “binds”.

As to “ATCCAGGTATGTATCGTGTTAATCAGCCTGTCTCTTCATCATCCCGTTAATAAGGACTTGATCGCAAATG (double strand) [Site A + Site B (70bp)]”, the binding result in series [4] (label: 5' biotin or Cy5) is “binds”; in series [3] (1 ug poly(dI-dC) per 20 ul, label: 5' biotin or Cy5), “binds”; in series [1] (dimeric complex, noncooperative, 1 ug poly(dI-dC) per 20 ul, label: 5' biotin or Cy5) it was “binds”.

“CAAGCTGGTTTTGATTCGATCACGACTCTCT (double strand) [Site D]”: the binding result in series [2] (monomer and dimer, label: 5' biotin) is reported as “binds”; in series [3] (setting [7]), “binds”; in series [1] (setting [7]) it was “binds”.

With “CTTCATCATCCCGTTAATAAGGACTTGATCG (double strand) [Site B]”, the binding result in series [2] (monomer only, label: 5' biotin) is “binds”; in series [3] (setting [8]), “binds”; in series [1] (setting [8]), “binds”.

As for “GGTATGTATCGTGTTAATCAGCCTGTCTCTT (double strand) [Site A]”, the binding result in series [2] (monomer only, label: 5' biotin) was “binds”; in series [3] (setting [9]) it was “binds”; in series [1] (setting [9]) it was “binds”.

In the case of “GTCGGGGCGTTAATAGATTTAAACTTTTTC (double strand) [Sp-EMI/TM palindromic]”, the binding result in series [2] (monomer and dimer, label: 5' biotin (Fig 2) or Cy5 (Fig 3, 4C)) was “binds”; in series [4] (dimer:monomer ratio markedly lower than Alx1-FL, titration 9-296 nM, 1 nM Cy5 probe, label: 5' biotin (Fig 2) or Cy5 (Fig 3, 4C)) it was “binds”; in series [3] (dimer:monomer ratio lower than Alx1-FL, titration 12-388 nM, 1 ug poly(dI-dC) per 20 ul, label: 5' biotin (Fig 2) or Cy5 (Fig 3, 4C)), “binds”; in series [1] (predominantly dimer, titration 12-388 nM, 1 nM Cy5 probe in Fig 3, 1 ug poly(dI-dC) per 20 ul, label: 5' biotin (Fig 2) or Cy5 (Fig 3, 4C)), “binds”.

In the case of “GTTGATAAACCAACCACAACGTCGGGGCGTTAATAGATTTAAACTTTTTCGTCCGCCTGTAAAGTGATAA (double strand) [longer palindromic (70bp)]”, the binding result is “binds” in series [4] (dimer, label: 5' biotin); “binds” in series [3] (setting [5]); “binds” in series [1] (setting [5]).

For “TATGTATCGTGTTAATCAGCCTGTCTCTTCATCATCCCGCTCTTCATCATCCCGTTAATAAGGACTTGAT (double strand) [Site A +++ Site B (70bp)]”, in series [1] (binding little or not changed versus Site A + Site B, 1 ug poly(dI-dC) per 20 ul, label: 5' biotin or Cy5), the binding result was “binds”.

Consider “TATGTATCGTGTTAATCAGCCTGTCTCTTCATCATCCCGTTAATAAGGACT (double strand) [shorter Site A + Site B (55bp)]”, for which the binding result in series [1] (complexes slower than dimer on palindrome, 1 ug poly(dI-dC) per 20 ul, label: 5' biotin) is listed as “binds”.

The record behind these values is paper PMC8319359.
